PubChem BioAssay AID1224830 | NIAID | 2016
In all, the deposit lists about 18,000 reagents; below is an unselected part. About 2,900 of all reagents (16%) count as active. 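Calls are made per well; low scores hint the gene aids the LPS response, high scores that it dampens it.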 A number with no mark means an inactive call. Repeated entries: four replicate wells of each siRNA pool.

Purpose: 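Regulators of TLR4 signalling towards TNF-alpha in macrophage-like cells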 (primary screen)
System: human THP-1 monocytic leukaemia cells, TNF dual-luciferase reporter clone, PMA-differentiated to macrophage-like cells
Knock-down reagent: siRNA pool against human genes, 50 nM
Time to read-out: LPS for 4 h, given about 3 days after siRNA transfection
Challenge: bacterial LPS (TLR4 ligand), 10 ng/ml
Detection: 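Ratio of firefly to renilla light, scaled to the plate median and expressed as a robust z-score per replicate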
Reading the numbers: TNF reporter robust z-score: higher = stronger TNF reporter response to LPS
Call rule: 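a well is active when its z-score exceeds 2.8 or falls below -1.5; control wells carry no call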

target gene | TNF reporter robust z-score
BAG2 | -1.02
BAG2 | -0.64
BAG2 | -0.68
BAG2 | -0.35
PRDM9 | 0.25
PRDM9 | 0
PRDM9 | 0.45
PRDM9 | 0.09
BID | -0.31
BID | 0.55
BID | -1.08
BID | 0.66
TK2 | 2.04
TK2 | 1.52
TK2 | 1.9
TK2 | -0.06
KIAA1586 | -0.53
KIAA1586 | -0.06
KIAA1586 | 0.58
KIAA1586 | 1.04
SLC17A5 | 0.22
SLC17A5 | 0.65
SLC17A5 | 0.02
SLC17A5 | 1.48
IKBKE | 2
IKBKE | 0.31
IKBKE | -0.65
IKBKE | 1.68
STRA6 | -1.3
STRA6 | -0.09
STRA6 | -0.83
STRA6 | 0.39
PSMG2 | 0.38
PSMG2 | 1.37
PSMG2 | -0.02
PSMG2 | 4.65 (active)
BRIX1 | 0.58
BRIX1 | -0.37
BRIX1 | 0.68
BRIX1 | 0.89
DBX1 | -1.34
DBX1 | -0.43
DBX1 | -0.67
UNC119 | 0.26
UNC119 | -0.24
UNC119 | -0.2
UNC119 | 2.84 (active)
TMC1 | -0.14
TMC1 | 0.69
TMC1 | 2.56
TMC1 | 0.36
MAPK10 | -1.07
MAPK10 | 0.81
MAPK10 | 0.73
MAPK10 | 0.19
CLIC5 | 0.28
CLIC5 | 0.41
CLIC5 | -0.52
CLIC5 | -0.74
HOXC6 | 0.76
HOXC6 | 1.84
HOXC6 | 1.09
HOXC6 | 1.47
FAM180A | -0.85
FAM180A | -0.73
FAM180A | -1.01
FAM180A | 0.54
JPH1 | -0.03
JPH1 | -0.62
JPH1 | 0.19
ZNF433 | 8.83 (active)
ZNF433 | 0.94
ZNF433 | 1.46
ZNF433 | 2.03
TAS1R3 | -0.38
TAS1R3 | 0.24
TAS1R3 | -0.64
TAS1R3 | -0.04
